Measurements from US20040029777A1, “Pharmaceutical preparation for taste masking” (TAISHO PHARMACEUTICAL CO., LTD., priority 2002, published 2004).

Experiment: Sensory taste test of bitterness, panel of four members
Parameters: key: A: No bitter taste.; B: Almost no bitter taste.; C: Slightly bitter taste.; D: Bitterness taste.; E: Strong bitter taste
Conditions: kept in the mouth about 20 seconds

Ibuprofen-lysine Salt [Ibuprofen-lysine salt complex]
E: degree of bitterness, Panelist 1 | degree of bitterness, Panelist 2 | degree of bitterness, Panelist 3 | degree of bitterness, Panelist 4
